Experimental data reported in patent US20230414776A1 (Harbin Institute of Technology, priority 2022, published 2023).

Assay: general procedure: peptide synthesis; Rink amide resin
Conditions: whole synthesis

Cys-(Gly)5-cyclic (KrRrRrRrRrRE)
final purity (method not given): 98.8%
